From the supplement of paper PMC12823440, “Inhibitors supercharge kinase turnover through native proteolytic circuits” (Nature, 2025)
Where a name gives a salt, the structure may show the parent alone. This is one part of the list. The calls rarely recur for the same compound in another form.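 Kinases, fused to nanoluciferase, were expressed in K562 cells; luminescence was measured every 4 h from 2 to 18 h as percent of control (DMSO = 100%, positive control = 0%). A time point is decreased if signal falls significantly (2 sigma). Hits were called by the authors by a rule that is not shown; the count of time points alone does not decide it.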

Amino acid sequences for entries named in this document (tags omitted). A change or cut given only in a name is not applied to a line headed by its entry.
UniProt Q9UM73: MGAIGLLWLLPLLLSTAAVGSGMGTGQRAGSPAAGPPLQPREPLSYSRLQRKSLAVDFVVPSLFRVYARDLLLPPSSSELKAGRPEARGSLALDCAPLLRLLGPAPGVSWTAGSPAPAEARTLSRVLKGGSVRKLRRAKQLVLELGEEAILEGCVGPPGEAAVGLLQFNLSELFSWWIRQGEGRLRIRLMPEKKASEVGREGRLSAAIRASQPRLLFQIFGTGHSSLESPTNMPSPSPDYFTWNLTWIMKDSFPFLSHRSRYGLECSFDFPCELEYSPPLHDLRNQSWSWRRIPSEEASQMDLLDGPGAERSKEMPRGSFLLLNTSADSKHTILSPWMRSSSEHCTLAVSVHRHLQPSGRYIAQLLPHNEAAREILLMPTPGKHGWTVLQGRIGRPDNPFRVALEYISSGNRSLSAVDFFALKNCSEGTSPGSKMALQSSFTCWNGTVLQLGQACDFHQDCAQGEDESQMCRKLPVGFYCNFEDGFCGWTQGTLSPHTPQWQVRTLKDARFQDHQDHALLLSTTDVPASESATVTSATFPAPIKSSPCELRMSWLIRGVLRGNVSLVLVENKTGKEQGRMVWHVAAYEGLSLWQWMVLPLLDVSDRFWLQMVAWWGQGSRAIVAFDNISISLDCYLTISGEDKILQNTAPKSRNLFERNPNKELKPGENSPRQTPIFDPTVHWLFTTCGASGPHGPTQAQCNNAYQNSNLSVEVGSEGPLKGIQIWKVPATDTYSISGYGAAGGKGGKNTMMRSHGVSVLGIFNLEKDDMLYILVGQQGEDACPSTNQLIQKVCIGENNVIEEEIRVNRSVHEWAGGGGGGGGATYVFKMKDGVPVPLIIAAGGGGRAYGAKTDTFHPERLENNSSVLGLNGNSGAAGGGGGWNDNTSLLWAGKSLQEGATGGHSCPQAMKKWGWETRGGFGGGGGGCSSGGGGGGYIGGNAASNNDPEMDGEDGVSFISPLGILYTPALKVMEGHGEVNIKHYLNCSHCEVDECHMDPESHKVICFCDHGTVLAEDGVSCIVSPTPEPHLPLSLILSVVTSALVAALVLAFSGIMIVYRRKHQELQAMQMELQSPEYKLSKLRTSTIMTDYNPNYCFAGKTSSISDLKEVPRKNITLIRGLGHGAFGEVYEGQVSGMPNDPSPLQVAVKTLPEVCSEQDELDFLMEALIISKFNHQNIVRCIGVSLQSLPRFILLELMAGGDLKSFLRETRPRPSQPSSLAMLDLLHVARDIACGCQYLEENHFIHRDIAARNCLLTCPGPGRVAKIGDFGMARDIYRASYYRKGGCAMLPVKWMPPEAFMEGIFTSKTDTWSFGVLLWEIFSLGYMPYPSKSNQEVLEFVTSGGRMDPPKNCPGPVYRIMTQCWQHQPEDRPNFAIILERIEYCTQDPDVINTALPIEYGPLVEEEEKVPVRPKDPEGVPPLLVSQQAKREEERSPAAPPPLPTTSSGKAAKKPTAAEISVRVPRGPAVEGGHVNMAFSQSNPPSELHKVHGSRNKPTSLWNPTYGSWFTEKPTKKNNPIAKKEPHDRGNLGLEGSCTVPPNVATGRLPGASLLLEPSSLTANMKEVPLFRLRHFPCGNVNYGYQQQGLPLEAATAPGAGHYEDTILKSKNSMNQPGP
UniProt P10398: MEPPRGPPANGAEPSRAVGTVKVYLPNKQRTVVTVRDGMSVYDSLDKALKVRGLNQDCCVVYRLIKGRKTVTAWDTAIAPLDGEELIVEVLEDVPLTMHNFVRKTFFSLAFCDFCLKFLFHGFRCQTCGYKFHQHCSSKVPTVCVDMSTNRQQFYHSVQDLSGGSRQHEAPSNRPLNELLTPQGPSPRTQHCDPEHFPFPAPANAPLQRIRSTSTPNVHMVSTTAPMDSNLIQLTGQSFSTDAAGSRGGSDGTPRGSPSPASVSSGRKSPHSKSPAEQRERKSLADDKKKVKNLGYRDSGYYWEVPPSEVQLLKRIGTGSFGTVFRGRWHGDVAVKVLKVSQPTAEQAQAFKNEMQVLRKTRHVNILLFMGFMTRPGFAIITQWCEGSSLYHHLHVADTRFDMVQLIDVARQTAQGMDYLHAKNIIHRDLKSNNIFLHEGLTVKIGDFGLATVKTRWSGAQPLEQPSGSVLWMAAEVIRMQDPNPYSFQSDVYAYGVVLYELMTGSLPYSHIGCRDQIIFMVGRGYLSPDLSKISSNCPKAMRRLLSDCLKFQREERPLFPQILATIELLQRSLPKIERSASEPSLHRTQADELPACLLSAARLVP
UniProt O14965: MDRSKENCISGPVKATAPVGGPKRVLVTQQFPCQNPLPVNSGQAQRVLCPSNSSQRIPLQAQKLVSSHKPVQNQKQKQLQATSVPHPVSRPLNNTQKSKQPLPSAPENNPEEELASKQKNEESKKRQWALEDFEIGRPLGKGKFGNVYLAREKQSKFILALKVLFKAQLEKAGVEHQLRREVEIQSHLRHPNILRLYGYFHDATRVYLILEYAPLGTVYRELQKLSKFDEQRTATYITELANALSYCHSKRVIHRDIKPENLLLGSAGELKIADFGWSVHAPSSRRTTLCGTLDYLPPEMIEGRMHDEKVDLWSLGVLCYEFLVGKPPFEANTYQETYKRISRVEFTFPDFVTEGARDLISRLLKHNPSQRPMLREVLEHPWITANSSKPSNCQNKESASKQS
UniProt Q96GD4, whole entry: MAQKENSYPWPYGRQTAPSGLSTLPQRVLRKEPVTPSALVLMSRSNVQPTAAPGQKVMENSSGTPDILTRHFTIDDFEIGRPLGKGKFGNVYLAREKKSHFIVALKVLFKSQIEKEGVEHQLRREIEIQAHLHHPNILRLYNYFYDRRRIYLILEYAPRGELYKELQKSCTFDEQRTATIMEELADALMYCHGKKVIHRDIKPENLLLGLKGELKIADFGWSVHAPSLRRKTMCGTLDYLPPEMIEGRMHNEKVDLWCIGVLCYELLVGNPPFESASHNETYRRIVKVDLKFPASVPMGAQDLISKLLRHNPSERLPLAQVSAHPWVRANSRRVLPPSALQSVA
UniProt Q9UQB9: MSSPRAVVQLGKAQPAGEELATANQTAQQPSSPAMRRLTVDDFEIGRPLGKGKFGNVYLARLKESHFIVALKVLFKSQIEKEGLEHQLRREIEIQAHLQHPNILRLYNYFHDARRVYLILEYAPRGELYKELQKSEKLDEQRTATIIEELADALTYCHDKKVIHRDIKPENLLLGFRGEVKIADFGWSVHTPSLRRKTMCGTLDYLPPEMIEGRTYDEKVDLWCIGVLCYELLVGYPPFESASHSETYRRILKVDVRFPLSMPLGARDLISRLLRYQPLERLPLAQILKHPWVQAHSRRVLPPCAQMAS
UniProt P51451: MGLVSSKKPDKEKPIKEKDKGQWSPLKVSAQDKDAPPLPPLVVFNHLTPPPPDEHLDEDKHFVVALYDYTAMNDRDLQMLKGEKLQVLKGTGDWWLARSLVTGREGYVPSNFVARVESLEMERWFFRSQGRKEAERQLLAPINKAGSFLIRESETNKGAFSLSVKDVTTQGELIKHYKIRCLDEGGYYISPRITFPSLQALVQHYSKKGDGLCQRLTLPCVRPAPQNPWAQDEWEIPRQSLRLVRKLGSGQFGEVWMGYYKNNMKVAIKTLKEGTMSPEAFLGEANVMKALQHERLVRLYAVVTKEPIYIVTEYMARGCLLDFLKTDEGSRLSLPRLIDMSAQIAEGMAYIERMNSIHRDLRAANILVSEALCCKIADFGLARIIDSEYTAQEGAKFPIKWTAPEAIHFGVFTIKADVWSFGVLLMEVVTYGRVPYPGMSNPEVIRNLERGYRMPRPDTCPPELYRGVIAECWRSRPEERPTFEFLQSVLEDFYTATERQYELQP
UniProt P15056, whole entry, looked up: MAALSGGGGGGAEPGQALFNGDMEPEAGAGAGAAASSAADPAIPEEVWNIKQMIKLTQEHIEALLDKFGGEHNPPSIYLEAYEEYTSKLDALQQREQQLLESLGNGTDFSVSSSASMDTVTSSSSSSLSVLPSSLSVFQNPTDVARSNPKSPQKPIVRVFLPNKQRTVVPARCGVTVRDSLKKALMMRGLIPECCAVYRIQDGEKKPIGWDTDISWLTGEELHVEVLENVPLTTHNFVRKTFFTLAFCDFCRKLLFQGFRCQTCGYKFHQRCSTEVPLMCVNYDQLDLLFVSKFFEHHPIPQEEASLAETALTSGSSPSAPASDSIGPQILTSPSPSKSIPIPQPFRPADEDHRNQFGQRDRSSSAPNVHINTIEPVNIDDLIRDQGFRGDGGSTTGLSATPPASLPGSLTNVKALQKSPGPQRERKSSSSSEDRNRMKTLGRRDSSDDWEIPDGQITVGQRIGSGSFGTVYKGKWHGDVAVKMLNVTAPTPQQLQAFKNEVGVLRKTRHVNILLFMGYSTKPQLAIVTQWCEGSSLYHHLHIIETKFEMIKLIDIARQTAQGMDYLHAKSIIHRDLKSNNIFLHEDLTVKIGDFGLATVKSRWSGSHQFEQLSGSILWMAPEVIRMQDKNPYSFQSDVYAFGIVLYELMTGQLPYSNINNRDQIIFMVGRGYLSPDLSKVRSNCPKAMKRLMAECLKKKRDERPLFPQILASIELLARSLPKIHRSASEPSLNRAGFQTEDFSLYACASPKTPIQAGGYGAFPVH
UniProt Q15131: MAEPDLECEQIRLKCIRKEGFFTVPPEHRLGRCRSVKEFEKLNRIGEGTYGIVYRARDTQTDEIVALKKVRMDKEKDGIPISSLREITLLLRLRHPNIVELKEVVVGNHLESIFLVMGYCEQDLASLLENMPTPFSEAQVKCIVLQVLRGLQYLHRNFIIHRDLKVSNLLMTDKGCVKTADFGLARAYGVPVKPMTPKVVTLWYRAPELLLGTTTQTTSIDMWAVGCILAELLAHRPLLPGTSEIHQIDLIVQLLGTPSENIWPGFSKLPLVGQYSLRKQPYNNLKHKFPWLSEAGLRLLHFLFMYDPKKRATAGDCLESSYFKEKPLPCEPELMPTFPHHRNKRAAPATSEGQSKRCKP
UniProt Q00526: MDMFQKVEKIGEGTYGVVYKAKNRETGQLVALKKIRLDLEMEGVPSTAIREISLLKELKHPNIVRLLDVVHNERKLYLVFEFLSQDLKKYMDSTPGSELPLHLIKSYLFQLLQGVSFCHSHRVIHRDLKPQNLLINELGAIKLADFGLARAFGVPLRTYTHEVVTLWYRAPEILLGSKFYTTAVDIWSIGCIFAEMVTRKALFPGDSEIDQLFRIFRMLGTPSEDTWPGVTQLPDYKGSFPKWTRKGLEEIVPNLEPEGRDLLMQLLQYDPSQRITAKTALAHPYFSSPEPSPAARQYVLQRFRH
UniProt P11802: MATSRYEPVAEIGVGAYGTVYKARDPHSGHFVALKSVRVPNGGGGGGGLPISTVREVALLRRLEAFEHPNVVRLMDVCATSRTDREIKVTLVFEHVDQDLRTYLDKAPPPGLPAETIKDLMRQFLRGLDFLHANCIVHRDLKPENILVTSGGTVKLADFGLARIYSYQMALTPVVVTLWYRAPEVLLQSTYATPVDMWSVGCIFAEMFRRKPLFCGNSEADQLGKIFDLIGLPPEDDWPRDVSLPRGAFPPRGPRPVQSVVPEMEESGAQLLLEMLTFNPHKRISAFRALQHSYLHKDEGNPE
UniProt Q00535, whole entry, looked up: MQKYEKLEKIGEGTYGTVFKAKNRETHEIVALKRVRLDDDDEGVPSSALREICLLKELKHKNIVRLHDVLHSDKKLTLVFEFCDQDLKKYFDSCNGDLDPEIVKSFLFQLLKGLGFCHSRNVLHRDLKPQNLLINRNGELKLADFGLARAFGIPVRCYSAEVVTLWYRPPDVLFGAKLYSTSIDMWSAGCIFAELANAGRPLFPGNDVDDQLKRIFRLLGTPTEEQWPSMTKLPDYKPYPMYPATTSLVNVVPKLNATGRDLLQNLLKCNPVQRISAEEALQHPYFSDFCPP
UniProt Q00534, whole entry: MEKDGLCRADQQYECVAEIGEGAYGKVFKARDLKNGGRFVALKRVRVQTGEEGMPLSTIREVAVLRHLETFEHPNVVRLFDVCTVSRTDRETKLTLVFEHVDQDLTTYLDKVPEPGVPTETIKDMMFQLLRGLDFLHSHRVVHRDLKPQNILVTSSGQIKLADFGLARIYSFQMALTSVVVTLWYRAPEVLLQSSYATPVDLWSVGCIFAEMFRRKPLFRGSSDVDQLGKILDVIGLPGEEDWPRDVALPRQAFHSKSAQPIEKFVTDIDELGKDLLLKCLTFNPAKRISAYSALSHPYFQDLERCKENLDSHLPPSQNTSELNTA

Assays:
Assay in all cases: kinase-Nluc reporter destabilization hit call (1 = scored as downregulated) (binary); higher = compound decreases kinase abundance
Settings in all cases: K562; 2-18 h
ABL1 = ABL1 (UniProt P00519)
AKT1 = AKT1 (UniProt P31749)
ALK = ALK (UniProt Q9UM73)
ARAF = ARAF (UniProt P10398)
AURKA = AURKA (UniProt O14965)
AURKB = AURKB (UniProt Q96GD4)
AURKC = AURKC (UniProt Q9UQB9)
BLK = BLK (UniProt P51451)
BMX = BMX (UniProt P51813)
BRAF = BRAF (UniProt P15056)
BRAF_V600E = tested on: BRAF_V600E
BTK = BTK (UniProt Q06187)
CAMK2A = CAMK2A (UniProt Q9UQM7)
CAMK2G = CAMK2G (UniProt Q13555)
CDK10 = CDK10 (UniProt Q15131)
CDK2 = CDK2 (UniProt P24941)
CDK3 = CDK3 (UniProt Q00526)
CDK4 = CDK4 (UniProt P11802)
CDK5 = CDK5 (UniProt Q00535)
CDK6 = CDK6 (UniProt Q00534)

Measured: kinase-Nluc reporter destabilization hit call

O=c1oc2c(C3OCCCO3)c(O)ccc2c2c1CNCC2 (10 µM)
inactive: ABL1 = 0 | AKT1 = 0 | ALK 0 | ARAF 0 | AURKA 0 | AURKB 0 | AURKC 0 | BLK 0 | BMX 0 | BRAF 0 | BRAF_V600E 0 | BTK 0 | CAMK2A 0 | CAMK2G 0 | CDK10 = 0 | CDK2 = 0 | CDK3 = 0 | CDK4 = 0 | CDK5 = 0 | CDK6 = 0

O=C([O-])c1ccccc1O.[Na+] [Sodium Salicylate] (10 µM)
inactive: ABL1 = 0 | AKT1 = 0 | ALK 0 | ARAF 0 | AURKA 0 | AURKB 0 | AURKC 0 | BLK 0 | BMX 0 | BRAF 0 | BRAF_V600E 0 | BTK 0 | CAMK2A 0 | CAMK2G 0 | CDK10 = 0 | CDK2 = 0 | CDK3 = 0 | CDK4 = 0 | CDK5 = 0 | CDK6 = 0

O=S(=O)(NCCNC/C=C/c1ccc(Br)cc1)c1cccc2cnccc12 [H-89 (dihydrochloride)] (10 µM)
inactive: ABL1 = 0 | AKT1 = 0 | ALK 0 | ARAF 0 | AURKA 0 | AURKB 0 | AURKC 0 | BLK 0 | BMX 0 | BRAF 0 | BRAF_V600E 0 | BTK 0 | CAMK2A 0 | CAMK2G 0 | CDK10 = 0 | CDK2 = 0 | CDK3 = 0 | CDK4 = 0 | CDK5 = 0 | CDK6 = 0

CCN(CC)CCCCNc1ncc2cc(-c3c(Cl)cccc3Cl)c(NC(=O)NC(C)(C)C)nc2n1 (2.5 µM)
inactive: ABL1 = 0 | AKT1 = 0 | ALK 0 | ARAF 0 | AURKA 0 | AURKB 0 | AURKC 0 | BLK 0 | BMX 0 | BRAF 0 | BRAF_V600E 0 | BTK 0 | CAMK2A 0 | CAMK2G 0 | CDK10 = 0 | CDK2 = 0 | CDK3 = 0 | CDK4 = 0 | CDK5 = 0 | CDK6 = 0

CN(C)C(=O)/C(C#N)=C/c1ccc(-c2nc3cnc4[nH]ccc4c3n2C2CCCCC2)o1 (10 µM)
inactive: ABL1 = 0 | AKT1 = 0 | ALK 0 | ARAF 0 | AURKA 0 | AURKB 0 | AURKC 0 | BLK 0 | BMX 0 | BRAF 0 | BRAF_V600E 0 | BTK 0 | CAMK2A 0 | CAMK2G 0 | CDK10 = 0 | CDK2 = 0 | CDK3 = 0 | CDK4 = 0 | CDK5 = 0 | CDK6 = 0

O=C(O)CCNC(=O)c1ccc(/N=N/c2ccc(O)c(C(=O)O)c2)cc1 [Balsalazide] (10 µM)
inactive: ABL1 = 0 | AKT1 = 0 | ALK 0 | ARAF 0 | AURKA 0 | AURKB 0 | AURKC 0 | BLK 0 | BMX 0 | BRAF 0 | BRAF_V600E 0 | BTK 0 | CAMK2A 0 | CAMK2G 0 | CDK10 = 0 | CDK2 = 0 | CDK3 = 0 | CDK4 = 0 | CDK5 = 0 | CDK6 = 0

CN1CCN(C2CCN(C(=O)Nc3cc(Oc4ccc(NC(=O)C5(C(=O)Nc6ccc(F)cc6)CC5)c(F)c4)ccn3)CC2)CC1 [Golvatinib] (2.5 µM)
inactive: ABL1 = 0 | AKT1 = 0 | ALK 0 | ARAF 0 | AURKA 0 | AURKB 0 | AURKC 0 | BLK 0 | BMX 0 | BRAF 0 | BRAF_V600E 0 | BTK 0 | CAMK2A 0 | CAMK2G 0 | CDK10 = 0 | CDK2 = 0 | CDK3 = 0 | CDK4 = 0 | CDK5 = 0 | CDK6 = 0

O=c1oc2c(O)c(O)cc3c(=O)oc4c(O)c(O)cc1c4c23 [Ellagic acid] (10 µM)
inactive: ABL1 = 0 | AKT1 = 0 | ALK 0 | ARAF 0 | AURKA 0 | AURKB 0 | AURKC 0 | BLK 0 | BMX 0 | BRAF 0 | BRAF_V600E 0 | BTK 0 | CAMK2A 0 | CAMK2G 0 | CDK10 = 0 | CDK2 = 0 | CDK3 = 0 | CDK4 = 0 | CDK5 = 0 | CDK6 = 0

2 compounds picked at random from the list so far:
CCN(CC)CCCCNc1ncc2cc(-c3c(Cl)cccc3Cl)c(NC(=O)NC(C)(C)C)nc2n1 (2.5 µM)
inactive: ABL1 = 0 | AKT1 = 0 | ALK 0 | ARAF 0 | AURKA 0 | AURKB 0 | AURKC 0 | BLK 0 | BMX 0 | BRAF 0 | BRAF_V600E 0 | BTK 0 | CAMK2A 0 | CAMK2G 0 | CDK10 = 0 | CDK2 = 0 | CDK3 = 0 | CDK4 = 0 | CDK5 = 0 | CDK6 = 0

O=c1oc2c(O)c(O)cc3c(=O)oc4c(O)c(O)cc1c4c23 [Ellagic acid] (10 µM)
inactive: ABL1 = 0 | AKT1 = 0 | ALK 0 | ARAF 0 | AURKA 0 | AURKB 0 | AURKC 0 | BLK 0 | BMX 0 | BRAF 0 | BRAF_V600E 0 | BTK 0 | CAMK2A 0 | CAMK2G 0 | CDK10 = 0 | CDK2 = 0 | CDK3 = 0 | CDK4 = 0 | CDK5 = 0 | CDK6 = 0

(cont.)

O=C(/C=C/c1ccc(O)c(O)c1)c1ccc(O)cc1O [Butein] (10 µM)
inactive: ABL1 = 0 | AKT1 = 0 | ALK 0 | ARAF 0 | AURKA 0 | AURKB 0 | AURKC 0 | BLK 0 | BMX 0 | BRAF 0 | BRAF_V600E 0 | BTK 0 | CAMK2A 0 | CAMK2G 0 | CDK10 = 0 | CDK2 = 0 | CDK3 = 0 | CDK4 = 0 | CDK5 = 0 | CDK6 = 0

C=CC(=O)Nc1cccc(Nc2nc(Nc3ccc(OCCOC)cc3)ncc2F)c1 [Spebrutinib] (10 µM)
inactive: ABL1 = 0 | AKT1 = 0 | ALK 0 | ARAF 0 | AURKA 0 | AURKB 0 | AURKC 0 | BLK 0 | BMX 0 | BRAF 0 | BRAF_V600E 0 | BTK 0 | CAMK2A 0 | CAMK2G 0 | CDK10 = 0 | CDK2 = 0 | CDK3 = 0 | CDK4 = 0 | CDK5 = 0 | CDK6 = 0

CN(c1ncccc1CNc1nc(Nc2ccc3c(c2)CC(=O)N3)ncc1C(F)(F)F)S(C)(=O)=O (2.5 µM)
inactive: ABL1 = 0 | AKT1 = 0 | ALK 0 | ARAF 0 | AURKA 0 | AURKB 0 | AURKC 0 | BLK 0 | BMX 0 | BRAF 0 | BRAF_V600E 0 | BTK 0 | CAMK2A 0 | CAMK2G 0 | CDK10 = 0 | CDK2 = 0 | CDK3 = 0 | CDK4 = 0 | CDK5 = 0 | CDK6 = 0

O=c1c(O)c(-c2ccc(O)c(O)c2)oc2cc(O)cc(O)c12 [Quercetin (dihydrate)] (10 µM)
inactive: ABL1 = 0 | AKT1 = 0 | ALK 0 | ARAF 0 | AURKA 0 | AURKB 0 | AURKC 0 | BLK 0 | BMX 0 | BRAF 0 | BRAF_V600E 0 | BTK 0 | CAMK2A 0 | CAMK2G 0 | CDK10 = 0 | CDK2 = 0 | CDK3 = 0 | CDK4 = 0 | CDK5 = 0 | CDK6 = 0

CCCS(=O)(=O)Nc1ccc(F)c(C(=O)c2c[nH]c3ncc(Cl)cc23)c1F (10 µM)
inactive: ABL1 = 0 | AKT1 = 0 | ALK 0 | ARAF 0 | AURKA 0 | AURKB 0 | AURKC 0 | BLK 0 | BMX 0 | BRAF 0 | BRAF_V600E 0 | BTK 0 | CAMK2A 0 | CAMK2G 0 | CDK10 = 0 | CDK2 = 0 | CDK3 = 0 | CDK4 = 0 | CDK5 = 0 | CDK6 = 0

Cn1c(=O)c(Oc2ccc(F)cc2F)cc2cnc(NC3CCOCC3)nc21 [R1487 (Hydrochloride)] (10 µM)
inactive: ABL1 = 0 | AKT1 = 0 | ALK 0 | ARAF 0 | AURKA 0 | AURKB 0 | AURKC 0 | BLK 0 | BMX 0 | BRAF 0 | BRAF_V600E 0 | BTK 0 | CAMK2A 0 | CAMK2G 0 | CDK10 = 0 | CDK2 = 0 | CDK3 = 0 | CDK4 = 0 | CDK5 = 0 | CDK6 = 0

CNc1nc(-c2ccc3c(N)n[nH]c3c2)cc(N2C[C@@H](C(=O)NC3CCCCC3)CC[C@H]2C)n1 (10 µM)
inactive: ABL1 = 0 | AKT1 = 0 | ALK 0 | ARAF 0 | AURKA 0 | AURKB 0 | AURKC 0 | BLK 0 | BMX 0 | BRAF 0 | BRAF_V600E 0 | BTK 0 | CAMK2A 0 | CAMK2G 0 | CDK10 = 0 | CDK2 = 0 | CDK3 = 0 | CDK4 = 0 | CDK5 = 0 | CDK6 = 0

CN1CCC(Nc2ncc3ncnc(Nc4ccc(F)c(Cl)c4)c3n2)CC1 [Falnidamol] (10 µM)
inactive: ABL1 = 0 | AKT1 = 0 | ALK 0 | ARAF 0 | AURKA 0 | AURKB 0 | AURKC 0 | BLK 0 | BMX 0 | BRAF 0 | BRAF_V600E 0 | BTK 0 | CAMK2A 0 | CAMK2G 0 | CDK10 = 0 | CDK2 = 0 | CDK3 = 0 | CDK4 = 0 | CDK5 = 0 | CDK6 = 0

O=C1Cc2c([nH]c3ccc(Br)cc23)-c2ncccc2N1 [1-Azakenpaullone] (10 µM)
inactive: ABL1 = 0 | AKT1 = 0 | ALK 0 | ARAF 0 | AURKA 0 | AURKB 0 | AURKC 0 | BLK 0 | BMX 0 | BRAF 0 | BRAF_V600E 0 | BTK 0 | CAMK2A 0 | CAMK2G 0 | CDK10 = 0 | CDK2 = 0 | CDK3 = 0 | CDK4 = 0 | CDK5 = 0 | CDK6 = 0

COc1c(CC=C(C)C)c(O)cc2oc(=O)c(-c3ccc(O)cc3O)cc12 [Glycycoumarin] (10 µM)
inactive: ABL1 = 0 | AKT1 = 0 | ALK 0 | ARAF 0 | AURKA 0 | AURKB 0 | AURKC 0 | BLK 0 | BMX 0 | BRAF 0 | BRAF_V600E 0 | BTK 0 | CAMK2A 0 | CAMK2G 0 | CDK10 = 0 | CDK2 = 0 | CDK3 = 0 | CDK4 = 0 | CDK5 = 0 | CDK6 = 0
